Measured values as given in PubChem BioAssay AID2685 (National Center for Advancing Translational Sciences (NCATS), 2010).
This is one part of the list. Further columns of the screen follow, without active or inactive calls. Most of these compounds were active or inconclusive in the main read-out, so they are no random draw. Potencies come from curve fits of mixed quality, noted in brackets.

Test: qHTS Assay for Lipid Storage Modulators in Drosophila S3 Cells;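 for cell number change: cells counted by Cell Tracker Red CMTPX staining in the red channel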
Details: BODIPY lipid droplet fluorescence, 18-24 h; for cell number change: measured here: cell count max response, cells fed with added oleic acid
Procedure, shortened: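 Drosophila S3 cells loaded with oleic acid (400 uM, as added) and compounds at several concentrations; lipid droplets imaged by 488-nm laser-scanning cytometry, 500–530 nm intensity and object ratio to cell channel. Percent activity normalized to 20 uM Triacsin C.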

[1] = measured here: lipid fluorescence (Fed channel) AC50, cells fed with added oleic acid
[2] = measured here: cell number channel AC50, cells fed with added oleic acid

| Structure (SMILES) | cell number change [%] | AC50 [1] | AC50 [2] |
| --- | --- | --- | --- |
| O=C(Cn1cnc2ccc(Cl)cc2c1=O)c1cccs1 | -10.3 | 1.64 µM [falling, full curve, poor fit] | – |
| COc1ccc(CCNS(=O)(=O)CCNC(=O)c2ccccc2)cc1 | – | 6.51 µM [rising, single point] | – |
| Cn1ncc([N+](=O)[O-])c1C(=O)Nc1ccc(Cl)cc1 | 2.84 | 3.26 µM [rising, single point] | – |
| O=C(NC1(C(F)(F)F)N=C(c2ccccc2)NC1=O)c1ccc(Cl)cc1Cl (stereo not given) | -16 | 20.6 µM [falling, single point] | – |
| CCCCn1cc2c(c1-c1cccc(C)c1)c(=O)n(C)c(=O)n2C | -1.49 | – | – |
| CC(C)(C)NC(=S)NNC(=O)c1cccc(Br)c1 | 45.7 | – | 14.6 µM [rising, partial curve, poor fit] |
| Cc1cc(C)nc(NS(=O)(=O)c2ccc(NC(=O)Cc3ccccc3F)cc2)n1 | 1.28 | 5.17 µM [rising, single point] | – |
| COc1ccc(NCC(=O)Nc2ccccc2C#N)cc1Cl | 7.96 | 6.51 µM [falling, single point] | 1.84 µM [falling, partial curve, poor fit] |
| S=c1[nH]nc(COc2ccc(Cl)cc2)n1C1CCCCC1 | -58.1 | 14.6 µM [falling, partial curve] | 20.6 µM [falling, partial curve] |
| O=C(Nc1ccc(O)c2c(=O)cc(-c3ccccc3Cl)oc12)c1cccc(Cl)c1 | -35.1 | 20.6 µM [falling, partial curve] | – |
| COc1ccc(CCN(C)Cc2ccc(C(=O)Nc3ccccc3)cc2)cc1OC | 17.9 | 29.1 µM [rising, single point] | – |
| O=C(/C=C/c1ccccc1Cl)NCc1cccs1 | -2.99 | 1.16 µM [rising, full curve, poor fit] | – |
| Nc1cc(=O)[nH]c(=S)n1-c1ccccc1 | -46.2 | 7.31 µM [falling, partial curve] | 3.66 µM [falling, full curve] |
| COc1ccccc1NC(=O)COC(=O)C12CC3CC(CC(Cl)(C3)C1)C2 | 3.75 | – | – |
| CCCC(=O)NCCCc1nc2ccccc2n1CCC | 19.4 | 10.3 µM [rising, partial curve] | – |
| O=[N+]([O-])c1cc2c(c(CSc3ncccn3)c1)OCOC2 | – | 0.58 µM [rising, partial curve, poor fit] | – |
| Cc1ccc(NC2CCCN(C(=O)CCC3(C)CC3)C2)cc1C (stereo not given) | -7.04 | 2.91 µM [falling, partial curve] | – |
| CCC(=O)NCc1cc(-c2nn(C)c(=O)c3ccccc23)ccc1C | -3.3 | 5.8 µM [rising, single point] | – |
| Cc1ccc(NC(=O)c2cc(N3C(=O)C4CC=CCC4C3=O)ccc2N2CCOCC2)cc1Cl (stereo not given) | 119 | 23.1 µM [rising, single point] | – |
| Cc1ccc(C(=O)CC(=O)c2cc(Cl)ccc2O)cc1 | -19.4 | 2.91 µM [rising, single point] | – |
| Cc1ccc(C(C)NC(=O)c2cc3cc(Br)ccc3oc2=N)cc1 (stereo not given) | -16.1 | – | – |

| Structure (SMILES) | cell number change [%] | AC50 [1] | AC50 [2] |
| --- | --- | --- | --- |
| O/N=C(\Cc1cscn1)c1ccc(O)cc1O | – | 0.0058 µM [falling, full curve] | – |
| Cc1ccc(C)c(COC(=O)c2cc([N+](=O)[O-])ccc2N2CCOCC2)c1 | -47.5 | – | – |
| O=C(/C=C/c1ccccc1)NNC(=O)c1ccco1 | -32.5 | 1.64 µM [falling, partial curve] | 9.2 µM [falling, partial curve, poor fit] |
| O=C(O)CCNC(=O)C12CC3CC(CC(C3)C1)C2 | -17.4 | 20.6 µM [falling, partial curve, poor fit] | – |
| Cc1cc(=O)oc2cc(OCC(=O)N3CC(C)OC(C)C3)ccc12 (stereo not given) | -1.73 | 2.31 µM [falling, partial curve] | – |
| CC1=CCC2C(=O)N(c3ccc(N4CCOCC4)cc3)C(=O)C2C1 (stereo not given) | -11.3 | 0.461 µM [falling, partial curve, poor fit] | – |
| Cc1cc([N+](=O)[O-])ccc1NC(=O)C(C)N1CCN(c2ccccn2)CC1 (stereo not given) | 3.11 | 0.291 µM [rising, partial curve, poor fit] | – |
| COc1ccc(OC)c(/C=N\NC(=O)c2ccc(-c3ccccc3)cc2)c1 | – | 25.9 µM [falling, single point] | – |
| Cc1[nH]n(-c2ccccc2)c(=O)c1N=Nc1nccs1 | 13 | – | – |
| FC(F)(F)c1ccccc1NC(=S)NN1CCOCC1 | 25.5 | 0.00517 µM [rising, full curve, poor fit] | – |
| NC(=O)c1cccc2c1C(=O)N(C1CCCCC1)C2 | 5.97 | 16.4 µM [rising, partial curve] | – |
| CCn1c(SCC(=O)N/N=C(\C)c2ccco2)nnc1-c1ccccc1 | 13.5 | – | – |
| CCCc1c(C(=O)N/N=C/c2c(OC)ccc3ccccc23)nnn1-c1nonc1N | 26.3 | 5.8 µM [falling, single point] | – |
| COC(=O)c1c(NC(=O)C2CC(C)=C(C)CC2C(=O)O)sc2c1CCCCC2 (stereo not given) | 12.7 | 10.3 µM [rising, partial curve, poor fit] | – |
| Cc1cccc2c(=O)c(-c3ccc4c(c3)OCO4)c(NC(=O)c3ccco3)oc12 | -0.472 | – | – |
| COc1cc2[nH]c(=O)n(CCC(=O)NC3CCCC3)c(=O)c2cc1OC | -4.99 | 0.184 µM [falling, full curve, poor fit] | – |
| CC1CCCN(CC(=O)Nc2ccc(S(=O)(=O)N3CCCC3)cc2)C1 (stereo not given) | 19.7 | 35.5 µM [rising, single point] | – |
| CCCOc1ccccc1/C=N/NC(=O)C1CC1 | 9.54 | – | – |
| O=C1N(CC(=O)N2CCc3ccccc32)CCN1Cc1ccccc1Cl | 197 | 6.51 µM [falling, single point] | 29.1 µM [rising, single point] |
| COc1ccc(CNC(=O)C2CCC(CNS(=O)(=O)c3ccccc3)CC2)cc1 (stereo not given) | 1.41 | 6.51 µM [rising, single point] | – |
| COc1ccc(-c2noc(CSc3nnc(-c4ccncc4)n3-c3ccc(F)cc3)n2)cc1OC | – | 0.651 µM [rising, full curve] | – |

Some of these compounds in order of molecular weight, low to high:

| Structure (SMILES) | cell number change [%] | AC50 [1] | AC50 [2] |
| --- | --- | --- | --- |
| CC1CCCN(CC(=O)Nc2ccc(S(=O)(=O)N3CCCC3)cc2)C1 (stereo not given) | 19.7 | 35.5 µM [rising, single point] | – |
| Cc1ccc(C)c(COC(=O)c2cc([N+](=O)[O-])ccc2N2CCOCC2)c1 | -47.5 | – | – |
| Cc1ccc(C(C)NC(=O)c2cc3cc(Br)ccc3oc2=N)cc1 (stereo not given) | -16.1 | – | – |

The list continues.

| Structure (SMILES) | cell number change [%] | AC50 [1] | AC50 [2] |
| --- | --- | --- | --- |
| CCC1CCCCN1CCCn1c(=S)[nH]c2ccccc2c1=O (stereo not given) | 13.3 | 0.146 µM [falling, full curve, poor fit] | – |
| CC1=C/C(=N\NC(=S)Nc2cccnc2)CC(C)(C)C1 | 30.3 | – | 7.31 µM [rising, partial curve, poor fit] |
| Cc1ccc(NC(=O)c2ccc3c(c2)C(=O)N(c2cc(C)ccc2C)C3=O)nc1 | – | 29.1 µM [rising, single point] | – |
| Cc1cc(C(F)(F)F)nc(SCC(=O)Nc2ccccc2)n1 | 2.33 | 1.3 µM [rising, full curve] | – |
| CC1CCC(C(C)C)C(OCC(O)CNC(C)(C)C)C1 (stereo not given) | 0.966 | 6.51 µM [falling, single point] | 6.51 µM [falling, single point] |
| NC(=O)c1ccccc1OCC(=O)O | 22.4 | 29.1 µM [rising, single point] | – |
| CCOC(=O)C(NCc1ccccc1)(NC(=O)c1ccccc1)C(F)(F)F (stereo not given) | -1.73 | 3.66 µM [falling, full curve] | – |
| CCOC(=O)C1CCCN(c2c(Nc3ccc(OCC)cc3)c(=O)c2=O)C1 (stereo not given) | 5.52 | 0.58 µM [falling, single point] | – |
| O=c1c2nccnc2[nH]c(=S)n1Cc1ccccc1Cl | 10 | – | – |
| COc1ccc([C@]23Cc4cc(OC)c(OC)cc4C(O2)c2c(cc(-c4ccccc4)oc2=O)O3)cc1 | 20.9 | 5.31 µM [rising, single point] | – |
| Cc1ccc(-c2nn(CC(=O)NCc3ccco3)c(=O)c3ccccc23)cc1 | -24.1 | – | – |
| CC1(C)N=C(c2ccc(Cl)cc2Cl)C(=O)N1 | 18.4 | 7.31 µM [falling, partial curve] | – |
| COc1ccc(C(=O)N/C(=C\c2cn(C)c3ccccc23)C(=O)NCCCn2ccnc2)cc1 | -14.2 | 6.51 µM [falling, single point] | 0.291 µM [rising, single point] |
| CN(C)S(=O)(=O)c1c(Cl)cccc1Cl | -25.3 | 14.6 µM [falling, single point] | 1.16 µM [falling, full curve, poor fit] |
| O=C(Nc1nc2ccc([N+](=O)[O-])cc2s1)c1ccco1 | -64.8 | 0.731 µM [falling, full curve] | – |
| N=c1sccn1CC(=O)N1CCc2ccccc21 | -96.1 | 0.92 µM [falling, full curve, poor fit] | 29.1 µM [falling, single point] |
| O=S(=O)(Nc1cccc2cccnc12)c1ccccc1 | -28.9 | 1.26 µM [rising, full curve] | – |
| CCOc1ccc(C(=O)NC(C)C2COc3ccccc3O2)cc1 (stereo not given) | 16.5 | – | – |
| CCC(=O)NCCCOc1ccccc1 | 2.78 | 0.13 µM [falling, full curve, poor fit] | – |
| Cc1cc(S(=O)(=O)N2CCN=C2c2ccccc2)c(C)cc1Cl | -33.1 | 4.11 µM [falling, full curve] | 4.61 µM [falling, full curve, poor fit] |
| CCOC(=O)c1cnn(-c2ccc(NS(=O)(=O)c3ccc(Cl)cc3)cc2)c1C(F)(F)F | -43.8 | 29.1 µM [falling, single point] | 16.4 µM [falling, single point] |
